The source of these data is the supplement of paper PMC10849652.

Protein sequences, listed by entry. Tags and fused reporters are not part of them. Lines headed by an entry give the natural chain unless they say otherwise; changes in a name come on top.
UniProt Q96G97: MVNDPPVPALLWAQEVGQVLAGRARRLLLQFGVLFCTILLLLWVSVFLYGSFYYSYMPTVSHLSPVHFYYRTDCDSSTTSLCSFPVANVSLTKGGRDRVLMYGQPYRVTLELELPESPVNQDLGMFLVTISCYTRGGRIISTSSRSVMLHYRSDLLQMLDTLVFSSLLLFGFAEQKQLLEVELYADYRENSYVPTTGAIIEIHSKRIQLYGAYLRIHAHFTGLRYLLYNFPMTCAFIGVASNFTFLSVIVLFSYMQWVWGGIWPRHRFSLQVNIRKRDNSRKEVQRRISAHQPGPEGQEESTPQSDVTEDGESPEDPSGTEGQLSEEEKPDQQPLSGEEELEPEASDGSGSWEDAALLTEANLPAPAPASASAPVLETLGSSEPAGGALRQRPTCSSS
UniProt Q9HCU9: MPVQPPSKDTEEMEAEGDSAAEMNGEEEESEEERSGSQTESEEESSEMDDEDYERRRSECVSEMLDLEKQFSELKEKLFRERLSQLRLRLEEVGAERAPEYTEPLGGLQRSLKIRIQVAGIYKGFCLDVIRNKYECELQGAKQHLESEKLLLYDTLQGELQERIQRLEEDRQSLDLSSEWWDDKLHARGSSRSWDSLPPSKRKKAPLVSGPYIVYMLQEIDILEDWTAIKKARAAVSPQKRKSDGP
UniProt P61769, whole entry, looked up: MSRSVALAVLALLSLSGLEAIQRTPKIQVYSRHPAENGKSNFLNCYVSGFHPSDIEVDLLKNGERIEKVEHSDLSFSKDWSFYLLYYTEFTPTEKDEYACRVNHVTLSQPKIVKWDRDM
UniProt Q7Z5W3: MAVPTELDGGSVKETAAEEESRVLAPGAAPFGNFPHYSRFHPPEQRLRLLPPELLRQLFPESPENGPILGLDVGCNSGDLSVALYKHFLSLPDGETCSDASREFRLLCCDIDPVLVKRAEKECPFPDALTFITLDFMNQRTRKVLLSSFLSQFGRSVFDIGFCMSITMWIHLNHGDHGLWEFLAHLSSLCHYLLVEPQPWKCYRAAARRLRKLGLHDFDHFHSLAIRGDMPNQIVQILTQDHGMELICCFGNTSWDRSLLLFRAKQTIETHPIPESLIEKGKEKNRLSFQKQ
UniProt O43521, whole entry, looked up: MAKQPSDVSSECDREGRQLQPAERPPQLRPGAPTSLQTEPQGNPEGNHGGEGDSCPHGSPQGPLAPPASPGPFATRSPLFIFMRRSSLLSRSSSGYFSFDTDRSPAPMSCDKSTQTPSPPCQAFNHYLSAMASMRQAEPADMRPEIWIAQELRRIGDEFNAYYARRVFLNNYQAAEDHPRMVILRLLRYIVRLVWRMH
UniProt Q12983, whole entry, looked up: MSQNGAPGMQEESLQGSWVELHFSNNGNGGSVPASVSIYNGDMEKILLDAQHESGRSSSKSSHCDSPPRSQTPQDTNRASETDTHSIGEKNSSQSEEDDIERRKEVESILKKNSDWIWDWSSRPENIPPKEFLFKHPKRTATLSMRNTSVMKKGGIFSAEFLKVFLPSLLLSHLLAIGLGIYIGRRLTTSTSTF
UniProt Q9NYM9: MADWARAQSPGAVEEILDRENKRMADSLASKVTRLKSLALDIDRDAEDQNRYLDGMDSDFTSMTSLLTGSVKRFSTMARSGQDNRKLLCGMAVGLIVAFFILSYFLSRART
UniProt Q9HB09: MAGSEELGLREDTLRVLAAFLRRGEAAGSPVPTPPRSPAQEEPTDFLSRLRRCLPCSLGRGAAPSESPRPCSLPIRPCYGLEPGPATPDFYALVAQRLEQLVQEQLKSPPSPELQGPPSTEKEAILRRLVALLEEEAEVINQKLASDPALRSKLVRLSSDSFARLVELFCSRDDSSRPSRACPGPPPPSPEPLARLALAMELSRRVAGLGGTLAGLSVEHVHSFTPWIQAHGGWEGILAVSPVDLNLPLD
UniProt Q9H7T9: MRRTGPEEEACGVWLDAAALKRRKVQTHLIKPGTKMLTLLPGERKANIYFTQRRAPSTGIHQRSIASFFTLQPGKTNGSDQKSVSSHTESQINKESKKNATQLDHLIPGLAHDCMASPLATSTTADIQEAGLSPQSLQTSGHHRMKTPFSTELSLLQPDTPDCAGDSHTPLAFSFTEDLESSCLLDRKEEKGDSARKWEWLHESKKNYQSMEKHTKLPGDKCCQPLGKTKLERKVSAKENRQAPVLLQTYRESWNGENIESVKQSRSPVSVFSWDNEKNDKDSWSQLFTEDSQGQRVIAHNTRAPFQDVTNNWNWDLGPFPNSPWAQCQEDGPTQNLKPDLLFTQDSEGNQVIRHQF
UniProt O75363: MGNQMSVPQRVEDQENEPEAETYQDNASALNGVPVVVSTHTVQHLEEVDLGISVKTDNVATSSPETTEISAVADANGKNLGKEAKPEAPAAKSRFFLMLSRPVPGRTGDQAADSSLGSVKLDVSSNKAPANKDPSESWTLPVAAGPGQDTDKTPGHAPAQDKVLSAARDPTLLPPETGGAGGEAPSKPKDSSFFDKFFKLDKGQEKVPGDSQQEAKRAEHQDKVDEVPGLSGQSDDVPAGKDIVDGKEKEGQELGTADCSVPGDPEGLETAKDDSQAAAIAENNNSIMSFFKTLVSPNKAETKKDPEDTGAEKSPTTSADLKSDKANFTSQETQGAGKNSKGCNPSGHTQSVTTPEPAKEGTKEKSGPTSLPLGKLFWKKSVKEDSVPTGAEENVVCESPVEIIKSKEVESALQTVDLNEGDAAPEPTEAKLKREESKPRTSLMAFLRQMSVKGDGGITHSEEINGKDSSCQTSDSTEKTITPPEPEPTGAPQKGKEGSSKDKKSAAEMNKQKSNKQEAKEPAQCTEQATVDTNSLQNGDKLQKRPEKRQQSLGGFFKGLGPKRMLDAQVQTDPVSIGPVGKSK
UniProt Q96IK1: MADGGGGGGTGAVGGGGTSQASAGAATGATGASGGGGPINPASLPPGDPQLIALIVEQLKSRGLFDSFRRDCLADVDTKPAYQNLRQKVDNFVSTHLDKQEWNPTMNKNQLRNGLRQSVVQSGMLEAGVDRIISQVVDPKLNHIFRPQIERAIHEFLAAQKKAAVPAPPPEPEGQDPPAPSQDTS
UniProt Q8TBE0: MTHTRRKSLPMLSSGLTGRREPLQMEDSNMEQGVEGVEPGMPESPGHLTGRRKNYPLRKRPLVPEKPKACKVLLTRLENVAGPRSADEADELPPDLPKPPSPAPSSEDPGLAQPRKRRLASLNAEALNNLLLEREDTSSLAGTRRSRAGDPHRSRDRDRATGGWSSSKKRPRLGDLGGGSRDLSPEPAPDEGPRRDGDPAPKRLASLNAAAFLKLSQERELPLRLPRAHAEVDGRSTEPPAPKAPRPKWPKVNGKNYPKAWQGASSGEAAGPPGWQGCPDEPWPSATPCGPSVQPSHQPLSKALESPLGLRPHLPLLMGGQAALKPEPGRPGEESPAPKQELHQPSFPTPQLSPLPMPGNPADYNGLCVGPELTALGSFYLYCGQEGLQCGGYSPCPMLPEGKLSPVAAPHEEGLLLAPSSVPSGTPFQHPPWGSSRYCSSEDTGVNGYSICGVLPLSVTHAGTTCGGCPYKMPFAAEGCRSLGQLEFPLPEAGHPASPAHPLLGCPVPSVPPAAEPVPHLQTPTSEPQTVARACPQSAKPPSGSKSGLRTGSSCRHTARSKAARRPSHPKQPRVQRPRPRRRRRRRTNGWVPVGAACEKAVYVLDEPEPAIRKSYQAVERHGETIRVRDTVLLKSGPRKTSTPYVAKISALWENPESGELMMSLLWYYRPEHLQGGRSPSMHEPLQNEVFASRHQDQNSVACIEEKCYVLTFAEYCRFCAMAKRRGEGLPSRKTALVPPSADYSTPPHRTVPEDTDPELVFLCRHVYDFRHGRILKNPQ
UniProt H3BUF6: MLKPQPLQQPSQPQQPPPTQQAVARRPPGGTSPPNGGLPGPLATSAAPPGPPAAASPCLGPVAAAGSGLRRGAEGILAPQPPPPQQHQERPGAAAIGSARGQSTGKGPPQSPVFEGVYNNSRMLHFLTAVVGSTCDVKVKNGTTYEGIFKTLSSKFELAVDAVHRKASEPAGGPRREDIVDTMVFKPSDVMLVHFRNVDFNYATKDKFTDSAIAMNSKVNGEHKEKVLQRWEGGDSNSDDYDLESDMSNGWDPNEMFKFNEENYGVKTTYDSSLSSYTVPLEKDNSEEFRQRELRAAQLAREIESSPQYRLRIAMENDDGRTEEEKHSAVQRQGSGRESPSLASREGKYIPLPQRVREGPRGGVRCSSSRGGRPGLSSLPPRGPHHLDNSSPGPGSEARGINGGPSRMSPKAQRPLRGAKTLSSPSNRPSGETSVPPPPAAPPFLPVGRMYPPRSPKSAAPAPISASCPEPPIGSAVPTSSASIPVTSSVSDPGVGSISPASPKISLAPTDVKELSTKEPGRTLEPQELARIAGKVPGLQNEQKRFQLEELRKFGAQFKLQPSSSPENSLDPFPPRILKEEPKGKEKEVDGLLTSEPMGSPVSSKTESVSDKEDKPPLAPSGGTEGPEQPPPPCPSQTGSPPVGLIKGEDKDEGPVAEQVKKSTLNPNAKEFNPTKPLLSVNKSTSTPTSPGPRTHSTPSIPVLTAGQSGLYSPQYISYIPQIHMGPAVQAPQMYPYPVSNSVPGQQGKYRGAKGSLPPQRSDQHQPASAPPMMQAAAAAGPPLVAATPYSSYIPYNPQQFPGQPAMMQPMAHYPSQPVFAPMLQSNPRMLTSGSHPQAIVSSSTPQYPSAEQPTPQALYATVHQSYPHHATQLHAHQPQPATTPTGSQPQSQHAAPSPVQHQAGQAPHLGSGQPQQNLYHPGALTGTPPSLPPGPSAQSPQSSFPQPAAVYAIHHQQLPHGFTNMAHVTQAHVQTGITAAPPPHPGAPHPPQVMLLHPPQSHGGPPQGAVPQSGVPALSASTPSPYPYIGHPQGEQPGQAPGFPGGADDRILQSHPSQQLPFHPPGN
UniProt Q9NWD9: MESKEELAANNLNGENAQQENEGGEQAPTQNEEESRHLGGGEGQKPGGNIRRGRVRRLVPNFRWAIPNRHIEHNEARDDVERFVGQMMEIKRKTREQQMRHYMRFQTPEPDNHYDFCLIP
UniProt Q9NZS9: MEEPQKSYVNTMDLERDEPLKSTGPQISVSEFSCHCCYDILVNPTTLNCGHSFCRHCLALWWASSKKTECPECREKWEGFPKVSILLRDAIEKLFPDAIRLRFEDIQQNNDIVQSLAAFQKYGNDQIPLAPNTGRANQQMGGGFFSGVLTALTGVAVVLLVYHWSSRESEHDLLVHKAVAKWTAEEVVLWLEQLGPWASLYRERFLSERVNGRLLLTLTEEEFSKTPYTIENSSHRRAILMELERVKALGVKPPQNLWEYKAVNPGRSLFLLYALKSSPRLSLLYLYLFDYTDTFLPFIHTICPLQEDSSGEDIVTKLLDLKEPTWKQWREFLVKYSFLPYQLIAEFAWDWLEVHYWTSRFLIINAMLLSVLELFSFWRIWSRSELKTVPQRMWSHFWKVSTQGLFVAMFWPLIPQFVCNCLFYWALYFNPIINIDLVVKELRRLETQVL
UniProt Q9BQE9, whole entry, looked up: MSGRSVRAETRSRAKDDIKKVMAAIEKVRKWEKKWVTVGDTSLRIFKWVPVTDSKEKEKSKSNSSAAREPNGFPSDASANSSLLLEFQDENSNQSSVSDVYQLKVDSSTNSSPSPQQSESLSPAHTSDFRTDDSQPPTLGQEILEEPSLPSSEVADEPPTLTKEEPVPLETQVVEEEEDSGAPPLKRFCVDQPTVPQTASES
UniProt O60513: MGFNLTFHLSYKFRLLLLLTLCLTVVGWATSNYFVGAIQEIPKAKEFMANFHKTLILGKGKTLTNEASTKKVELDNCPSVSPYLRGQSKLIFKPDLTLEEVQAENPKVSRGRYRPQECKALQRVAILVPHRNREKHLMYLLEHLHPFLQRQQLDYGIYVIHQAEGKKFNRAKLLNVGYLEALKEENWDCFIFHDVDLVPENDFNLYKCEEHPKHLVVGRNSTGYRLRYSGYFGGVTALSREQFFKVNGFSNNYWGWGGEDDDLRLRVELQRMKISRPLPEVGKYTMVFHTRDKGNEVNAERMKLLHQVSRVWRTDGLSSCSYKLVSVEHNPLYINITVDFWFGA
UniProt Q8TDL5: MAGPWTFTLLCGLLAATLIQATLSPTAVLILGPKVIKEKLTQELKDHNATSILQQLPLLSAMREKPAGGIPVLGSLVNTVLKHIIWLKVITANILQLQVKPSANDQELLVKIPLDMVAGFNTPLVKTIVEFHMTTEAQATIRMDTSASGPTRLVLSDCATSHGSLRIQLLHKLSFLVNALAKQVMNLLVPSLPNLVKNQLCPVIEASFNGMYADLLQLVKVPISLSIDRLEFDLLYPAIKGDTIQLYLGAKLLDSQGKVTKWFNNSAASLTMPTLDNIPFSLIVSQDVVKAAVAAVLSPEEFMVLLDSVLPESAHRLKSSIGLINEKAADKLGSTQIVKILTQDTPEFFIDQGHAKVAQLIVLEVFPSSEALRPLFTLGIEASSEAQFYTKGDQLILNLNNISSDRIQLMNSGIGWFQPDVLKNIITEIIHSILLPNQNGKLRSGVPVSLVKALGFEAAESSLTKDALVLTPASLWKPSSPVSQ

Some of the results follow.

Compound in one experiment: COc1cc(C(=O)O)ccc1NC(=O)[C@@H]1N[C@@H](CC(C)(C)C)[C@](C#N)(c2ccc(Cl)cc2F)[C@H]1c1cccc(Cl)c1F [idasanutlin]
In words: log2 fold change, soluble protein after heating vs DMSO (PISA); higher = thermal stabilisation; K562 cells, 10 uM, 30 min; active = over 0.2 and 3.5 SD of the protein, either way, in both replicates (recomputed). A digest of the protocol:
(§1)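 Values are thermal stability changes relative to control samples and are taken from duplicates. They are stated as log2 fold changes. Before quantification by TMTpro 16plex LC-MS/MS with equalised channel sums, K562 cells at 2×10^6 cells/mL were treated with 10 μM compound for 30 min, heated in aliquots for 3 min across 48°C-58°C, pooled, extracted in PBS with 0.5% NP-40 at 4°C, and centrifuged at 21,000xg for 90 min to give the soluble supernatant.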
Turning to BCL7A isoform 2 (UniProt Q4VC05), the log2 fold change is inactive: 0.104.
Same read-out and setting: with BSCL2 isoform 4 (UniProt Q96G97) the figure was inactive: -0.132; with BRAF, A0A2R8Y8E0, inactive: 0.221; with BRMS1 (UniProt Q9HCU9), inactive: 0.066.
With B2M (UniProt P61769), the log2 fold change is inactive: -0.011.
As to ATXN2 (UniProt F8W0B5), the log2 fold change is inactive: 0.101.
The same measure, in the same setting: to ATRX (UniProt P46100) belongs inactive: 0.149; to BCDIN3D (UniProt Q7Z5W3), inactive: -0.004; to BCL2L11 (UniProt O43521), inactive: 0.019.
In the case of BNIP3 (UniProt Q12983), the log2 fold change is inactive: 0.006.
In the case of AURKAIP1 (UniProt Q9NWT8), the log2 fold change was inactive: 0.05.
With BET1L (UniProt Q9NYM9), the log2 fold change was inactive: -0.111.
Same read-out and setting: with BCL2L12 (UniProt Q9HB09) the figure was inactive: -0.15; with BRD4 (UniProt O60885), inactive: -0.001; with AUNIP isoform 2 (UniProt Q9H7T9), inactive: 0.142.
As to AURKB isoform 5 (UniProt Q96GD4), the log2 fold change is inactive: 0.184.
Still for that read-out and setting: with BCAS1 (UniProt O75363) the figure was inactive: -0.016.

Compound in a further experiment: COc1cc(Nc2ncc3c(n2)-c2ccc(Cl)cc2C(c2c(F)cccc2OC)=NC3)ccc1C(=O)O [alisertib]
Described as above. The gist of the method:
as §1
Consider BSCL2 isoform 4 (UniProt Q96G97), for which the log2 fold change was inactive: -0.037.
On the same count and under the same terms, to BRAF, A0A2R8Y8E0 belongs inactive: -0.054.
Regarding BRMS1 (UniProt Q9HCU9), the log2 fold change is inactive: -0.074.
Same read-out and setting: with B2M (UniProt P61769) the figure was inactive: -0.04; with BIN1 (UniProt O00499), inactive: -0.146.
Turning to ATXN2 (UniProt F8W0B5), the log2 fold change is inactive: -0.024.
Turning to BOD1 (UniProt Q96IK1), the log2 fold change was inactive: 0.034.
As to BCL2L11 (UniProt O43521), the log2 fold change is inactive: 0.006.
The same measure, in the same setting: to BAP18 isoform 3 (UniProt Q8IXM2) belongs inactive: -0.033; to BNIP3 (UniProt Q12983), inactive: 0.037.
In the case of BAHD1 (UniProt Q8TBE0), the log2 fold change was inactive: 0.094.
In the case of AURKAIP1 (UniProt Q9NWT8), the log2 fold change is inactive: -0.006.
For BET1L (UniProt Q9NYM9), the log2 fold change is inactive: 0.002.
As to BCL7C (UniProt Q8WUZ0), the log2 fold change was inactive: 0.905.
In the case of ATXN2L (UniProt H3BUF6), the log2 fold change is inactive: -0.175.
In the case of BEX4 (UniProt Q9NWD9), the log2 fold change was inactive: 0.015.
Regarding BFAR (UniProt Q9NZS9), the log2 fold change is inactive: 0.037.
Regarding BCL2L12 (UniProt Q9HB09), the log2 fold change was inactive: -0.003.
As to BRD4 (UniProt O60885), the log2 fold change was inactive: -0.064.
The same measure, in the same setting: with BCL7C isoform 2 (UniProt Q8WUZ0) the figure was inactive: -0.166; with BCL7B (UniProt Q9BQE9), inactive: -0.141; with BPNT1 (UniProt A6NF51), inactive: -0.202.
On to BNIP2 (UniProt H7C096), for which the log2 fold change is inactive: 0.024.
In the case of BCAS1 (UniProt O75363), the log2 fold change is inactive: -0.218.

Compound in another experiment: COc1cc2nc(-c3cc(F)ccc3O)nc(N[C@@H]3CNC[C@H]3C(C)(C)O)c2cc1OC
The description is as above. A digest of the protocol: as §1
For the target BCL7A isoform 2 (UniProt Q4VC05), the log2 fold change is inactive: 0.156.
Turning to BSCL2 isoform 4 (UniProt Q96G97), the log2 fold change was inactive: -0.248.
Regarding B2M (UniProt P61769), the log2 fold change was inactive: -0.008.
On to BNIP3 (UniProt Q12983), for which the log2 fold change is inactive: -0.08.
BAHD1 (UniProt Q8TBE0): the log2 fold change was inactive: -0.032.
As for BET1L (UniProt Q9NYM9), the log2 fold change was inactive: -0.007.
On to AVEN (UniProt Q9NQS1), for which the log2 fold change was inactive: 0.16.
Consider ATXN2L (UniProt H3BUF6), for which the log2 fold change was inactive: 0.062.
Take BFAR (UniProt Q9NZS9): the log2 fold change was inactive: -0.351.
On to BCL2L12 (UniProt Q9HB09), for which the log2 fold change was inactive: -0.104.
For the target BRD4 (UniProt O60885), the log2 fold change is inactive: 0.078.
Regarding AUNIP isoform 2 (UniProt Q9H7T9), the log2 fold change was inactive: -0.229.
Consider BCAS1 (UniProt O75363), for which the log2 fold change is inactive: 0.035.

Compound in a further experiment: COc1cc2ncnc(Nc3ccc(F)c(Cl)c3)c2cc1OCCCN1CCOCC1 [gefitinib]
The description is as above. The gist of the method:
as §1
As for BSCL2 isoform 4 (UniProt Q96G97), the log2 fold change was inactive: 0.021.
For the target AZI2 (UniProt Q9H6S1), the log2 fold change was inactive: 0.227.
Consider BRAF, A0A2R8Y8E0, for which the log2 fold change was inactive: -0.027.
Still for that read-out and setting: to B2M (UniProt P61769) belongs inactive: 0.057; to ATXN2 (UniProt F8W0B5), inactive: -0.011; to BCL2L11 (UniProt O43521), inactive: 0.09.
In the case of BNIP3 (UniProt Q12983), the log2 fold change was inactive: -0.018.
On to BAHD1 (UniProt Q8TBE0), for which the log2 fold change is inactive: 0.003.
Same read-out and setting: to BET1L (UniProt Q9NYM9) belongs inactive: -0.005; to ATXN2L (UniProt H3BUF6), inactive: 0.032; to B4GALT4 (UniProt O60513), inactive: 0.106.
Same read-out and setting: with BCL2L12 (UniProt Q9HB09) the figure was inactive: 0.017; with BRD4 (UniProt O60885), inactive: 0.152; with BCL7C isoform 2 (UniProt Q8WUZ0), inactive: -0.074.
On to AURKB isoform 5 (UniProt Q96GD4), for which the log2 fold change is inactive: -0.025.
In the case of BPIFB1 (UniProt Q8TDL5), the log2 fold change was inactive: 0.373.
Regarding BCAS1 (UniProt O75363), the log2 fold change is inactive: 0.118.
